Laboratory results taken from publication PMC6159992, “Selective disruption of TLR2-MyD88 interaction inhibits inflammation and attenuates Alzheimer’s pathology” (The Journal of Clinical Investigation, 2018).
No constants are given. Whether binding was seen depends on the method and setting. Binding seen in cells or lysates may run through a third protein. Some results given as binding are weak or reduced against the parent protein; the word gives no strength.

Chains of the proteins cited; added tags and fusions are not shown. Residues count along the entry.
UniProt P22366: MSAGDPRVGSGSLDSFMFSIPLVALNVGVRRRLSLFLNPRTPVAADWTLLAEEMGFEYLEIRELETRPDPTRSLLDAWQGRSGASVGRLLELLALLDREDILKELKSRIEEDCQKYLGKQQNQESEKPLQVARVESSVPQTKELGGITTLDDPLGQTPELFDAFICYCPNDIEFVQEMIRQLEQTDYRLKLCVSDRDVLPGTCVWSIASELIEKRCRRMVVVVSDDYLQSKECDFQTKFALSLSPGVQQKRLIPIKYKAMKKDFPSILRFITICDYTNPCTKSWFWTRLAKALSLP
UniProt Q9QUN7, residues 640-784: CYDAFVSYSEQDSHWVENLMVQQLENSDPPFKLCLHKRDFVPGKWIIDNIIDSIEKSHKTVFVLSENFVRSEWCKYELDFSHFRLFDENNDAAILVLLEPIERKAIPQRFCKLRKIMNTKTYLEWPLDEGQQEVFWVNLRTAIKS
UniProt Q9QUK6, residues 26-835: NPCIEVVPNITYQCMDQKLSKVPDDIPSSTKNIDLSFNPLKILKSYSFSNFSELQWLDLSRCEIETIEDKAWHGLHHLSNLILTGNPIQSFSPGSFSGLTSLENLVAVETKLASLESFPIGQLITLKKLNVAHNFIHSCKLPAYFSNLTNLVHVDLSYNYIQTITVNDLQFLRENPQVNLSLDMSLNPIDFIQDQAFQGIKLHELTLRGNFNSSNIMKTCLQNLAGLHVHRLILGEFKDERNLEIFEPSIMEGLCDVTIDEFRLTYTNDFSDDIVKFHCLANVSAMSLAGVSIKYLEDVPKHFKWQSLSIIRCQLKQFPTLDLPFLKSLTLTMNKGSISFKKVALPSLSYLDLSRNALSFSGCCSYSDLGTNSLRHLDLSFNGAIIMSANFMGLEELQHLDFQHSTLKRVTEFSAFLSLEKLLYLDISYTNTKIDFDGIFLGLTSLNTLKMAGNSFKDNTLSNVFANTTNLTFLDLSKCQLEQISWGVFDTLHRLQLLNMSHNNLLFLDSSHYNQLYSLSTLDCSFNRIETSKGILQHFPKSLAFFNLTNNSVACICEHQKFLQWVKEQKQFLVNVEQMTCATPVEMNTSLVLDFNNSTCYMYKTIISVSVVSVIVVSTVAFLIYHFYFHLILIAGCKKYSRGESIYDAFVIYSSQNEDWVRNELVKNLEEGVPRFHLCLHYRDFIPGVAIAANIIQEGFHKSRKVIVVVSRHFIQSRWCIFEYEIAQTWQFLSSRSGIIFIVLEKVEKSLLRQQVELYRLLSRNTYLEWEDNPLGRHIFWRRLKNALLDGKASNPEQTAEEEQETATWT

Target: MyD88 (mouse (endogenous in BV-2)) (UniProt P22366)
Assay: co-IP; BV-2 microglial cells preincubated with WT TIDM or mTIDM for 1 hour, stimulated for 1 hour with 1 μM fibrillar Aβ1-42 or LPS, serum-free; cellular extracts immunoprecipitated with anti-MyD88 antibody, blotted for TLR2, TLR4 or cMyc (cells transduced with pLenti-cMyc-cTlr2); normal IgG as control

Row | Substance | binding
1 | Myc-tagged cTLR2 expressed in BV-2 microglial cells (pLenti-cMyc-cTlr2) (from UniProt Q9QUN7 640-784) (domain or fragment) | binds
2 | TLR4 (from UniProt Q9QUK6 26-835) (receptor) | binds
